Values quoted from earlier work as cited in US11013731B2, “Intratumoral administration of sirolimus for treatment of prostate cancer” (SANTEN PHARMACEUTICAL CO., LTD., priority 2017, dated 2021).
At least one structure is not confirmed: it was looked up by name or label, or the drawing left a doubt.

Columns and labels:
[1] = prevention of kidney transplant rejection
[2] = tested on: hormone-refractory prostate cancer; conditions: administered orally to men with hormone-refractory prostate cancer; small pilot study

In the case of `CO[C@H]1C[C@@H]2CC[C@@H](C)[C@@](O)(O2)C(=O)C(=O)N2CCCC[C@H]2C(=O)O[C@H]([C@H](C)C[C@@H]2CC[C@@H](O)[C@H](OC)C2)CC(=O)[C@H](C)/C=C(\C)[C@@H](O)[C@@H](OC)C(=O)[C@H](C)C[C@H](C)/C=C/C=C/C=C/1C` [sirolimus], the “Levels of sirolimus in the blood efficacious in achieving immunosuppression” value [1] is given as 8 to 10 ng/mL and the radiographic response [2] is given as “one of twelve”.
